From patent US12037646B2, “Companion diagnostic biomarker for anti-HER2 therapy and use thereof” (INDUSTRY-UNIVERSITY COOPERATION FOUNDATION HANYANG …, priority 2019, dated 2024)
For at least one compound, name, drawing or mass did not settle the structure.

System: IRS1, WNT1, and WNT3
Assay: Expression of CDK12 candidate targets by immunoblotting and qRT-PCR
Format: cell-based, human
Conditions: various doses for 12 hours; trastuzumab-sensitive and -resistant HER2+ breast cancer cells; dose-dependent

CCc1cnn2c(NCc3ccc[n+]([O-])c3)cc(N3CCCC[C@H]3CCO)nc12 [dinaciclib]
expression of IRS1, WNT1, and WNT3 at a transcriptional level: reduced
